Data reported in PMC8137146.
Results are given in words; binding and its absence hold for the method and conditions named. In cells and extracts the contact can be indirect. Some results given as binding are weak or reduced against the parent protein; the word gives no strength.

Sequences of proteins named here, by UniProt entry; tags and fusion partners are left off.
UniProt Q9UPT8: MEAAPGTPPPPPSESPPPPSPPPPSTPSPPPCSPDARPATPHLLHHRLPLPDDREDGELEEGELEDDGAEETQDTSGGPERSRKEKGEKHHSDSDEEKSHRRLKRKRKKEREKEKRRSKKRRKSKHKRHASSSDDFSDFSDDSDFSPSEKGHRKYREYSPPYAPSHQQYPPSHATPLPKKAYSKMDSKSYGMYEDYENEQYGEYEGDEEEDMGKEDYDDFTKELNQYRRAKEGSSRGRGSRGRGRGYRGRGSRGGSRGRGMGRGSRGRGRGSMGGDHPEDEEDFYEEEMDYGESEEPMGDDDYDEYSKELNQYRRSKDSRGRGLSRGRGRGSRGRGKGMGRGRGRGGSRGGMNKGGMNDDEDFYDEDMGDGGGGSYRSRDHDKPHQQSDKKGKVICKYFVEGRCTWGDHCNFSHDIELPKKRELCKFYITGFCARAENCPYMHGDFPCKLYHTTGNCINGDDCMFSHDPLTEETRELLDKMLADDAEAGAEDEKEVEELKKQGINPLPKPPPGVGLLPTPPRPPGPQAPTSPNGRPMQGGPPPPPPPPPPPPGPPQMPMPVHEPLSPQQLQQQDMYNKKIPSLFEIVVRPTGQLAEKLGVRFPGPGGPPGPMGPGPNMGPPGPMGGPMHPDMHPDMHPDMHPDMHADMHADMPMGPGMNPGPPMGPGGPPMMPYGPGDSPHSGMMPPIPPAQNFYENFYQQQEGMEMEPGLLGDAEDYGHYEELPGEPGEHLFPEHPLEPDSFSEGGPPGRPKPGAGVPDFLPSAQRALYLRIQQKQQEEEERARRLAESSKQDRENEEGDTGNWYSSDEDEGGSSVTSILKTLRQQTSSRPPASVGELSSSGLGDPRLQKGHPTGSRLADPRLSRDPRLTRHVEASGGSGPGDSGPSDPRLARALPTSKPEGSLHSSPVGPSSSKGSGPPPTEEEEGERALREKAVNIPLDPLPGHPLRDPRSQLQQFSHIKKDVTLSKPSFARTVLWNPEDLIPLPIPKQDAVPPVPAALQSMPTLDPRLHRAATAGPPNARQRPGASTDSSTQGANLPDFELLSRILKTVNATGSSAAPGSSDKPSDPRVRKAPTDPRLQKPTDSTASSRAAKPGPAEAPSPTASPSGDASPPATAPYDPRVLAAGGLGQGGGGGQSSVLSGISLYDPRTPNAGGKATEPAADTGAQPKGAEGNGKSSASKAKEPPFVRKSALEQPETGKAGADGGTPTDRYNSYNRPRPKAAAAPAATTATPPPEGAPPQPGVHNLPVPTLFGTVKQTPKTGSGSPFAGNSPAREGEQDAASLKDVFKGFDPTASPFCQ
UniProt Q6UXN9: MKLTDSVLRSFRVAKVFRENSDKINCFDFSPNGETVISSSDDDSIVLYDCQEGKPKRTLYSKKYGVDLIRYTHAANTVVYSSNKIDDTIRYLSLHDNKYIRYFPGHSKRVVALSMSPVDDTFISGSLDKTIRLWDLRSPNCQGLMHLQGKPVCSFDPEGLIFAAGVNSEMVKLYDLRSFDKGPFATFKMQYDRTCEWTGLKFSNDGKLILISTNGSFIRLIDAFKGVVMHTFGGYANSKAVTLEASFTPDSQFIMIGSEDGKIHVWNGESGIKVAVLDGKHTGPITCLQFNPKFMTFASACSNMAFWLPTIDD

Target: ZC3H4-GFP (human) (UniProt Q9UPT8)
Test: co-IP; GFP trap: ZC3H4-GFP captured from whole cell lysate on GFP nanobody-coupled magnetic agarose, 1 hr at 4°C; lysis buffer 150 mM NaCl, 2.5 mM MgCl2, 20 mM Tris HCl pH 7.5, 1% Triton X-100, Benzonase; 5 washes; western blot for WDR82 and GFP; untransfected cells as negative control

Substance: WDR82 (from UniProt Q6UXN9 1-313)
- binding: binds
